{"source": "patent US20190085097A1", "about": "(published 2019)", "binders": {"B1": {"name": "monoclonal antibody plasmin inhibitor (Pi) (antibody, mouse IgG1, kappa, V domains shown)", "VH": "EVKLLESGGGLVQPGGSLKLSCAASGFDFSRYWMSWVRQAPGKGLEWIGEINPDSSTINYTPSLKDKFIISRDNAKNSLYLQMSKVRSEDTALYYCASYCGYSYDALDCWGQGTSVTVSS", "VL": "DIQMTQSPSSLSASLGGKVSITCKASQDINKYISWYQHKPGKGPRLLIHYTSTLQPGIPSRFSGSGSGRDYSFSISNLEPEDIATYYCLQYDNLYTFGGGTKLEIKR", "notes": "Mouse hybridoma IgG purified from supernatant; also called Pi IgG; Pi MAb38"}}, "key": {"[1]": {"target": "chymotrypsin", "test": "ELISA, antigen coated at 10 ug/ml, antibody supernatant, compared with anti-digoxin control"}, "[2]": {"target": "trypsin", "test": "ELISA, antigen coated at 10 ug/ml, antibody supernatant, compared with anti-digoxin control"}}, "note": "No constants are given. Whether binding was seen depends on the method and setting.", "data": [{"binder": "B1", "values": [{"measurement": "binding", "setting": "[1]", "result": "no binding"}, {"measurement": "binding", "setting": "[2]", "result": "no binding"}]}]}
